These are yes or no findings as the source states them, for the method shown.
Biological target: GST alone bound to glutathione-Sepharose
Experiment: GST pull-down, 35S-labeled protein, SDS-PAGE and fluorography

binding: no binding
B1: Full-length ARIP4 labeled with [35S]methionine by translation in vitro (protein)
chain: MSDESASGSDPDLDPDVELEDEEEEEEEEEVAVEEHDRDDEEGLLDDTSLEGMCGTEHAQLGEDGQRPPRCTSTTSSQSEPSEQLRHQGKILASEDPKKKRAQKPSHMRRNIRKLLREDQLEPVTKAAQQEELERRKRLEQQRKEYAAPIPTVPLEFLPEEIVLRASDGPQLPPRVLAQEVICLDSSSGSEDEKSSRDEVIELSSGEEDTLHIVDSSESVSEEDEEEEKGGTHVNDALNQHDALGRVLVNLNHPPEEENVFLAPQLARAVKPHQIGGIRFLYDNLVESLERFKTSSGFGCILAHSMGLGKTLQVISFIDVLFRHTPAKTVLAIVPVNTLQNWLAEFNMWLPAPEALPADSKPEEVQPRFFKVHILNDEHKTVASRAKVTADWVSEGGVLLMGYEMYRLLTLKKSLATSRPKKTKKRSHPVIIDLDEEDRQQEFRREFEKALCRPGPDVVICDEGHRIKNCQASTSQALKNIRSRRRVVLTGYPLQNNLIEYWCMVDFVRPDFLGTRQEFSNMFERPILNGQCIDSTPQDVRLMRYRSHVLHSLLEGFVQRRGHTVLKIHLPAKEENVILVRLSQIQRDLYTQFMDRFRDCGTSGWLGLNPLKAFCVCCKIWNHPDVLYEALQKENLANEQDLDVEELGSAGTSARCPPHGTKVKGEDSALPSSMGEATNSKFLQGVGFNPFQERGNNIVTYEWAKELLTNYQTGVLENSPKMVLLFHLIEESVKLGDKILVFSQSLSTLALIEEFLGKRDMPCLPGAEGQGTQKWVRNVSYFRLDGSTPAFERERLINQFNDPSNLTTWLFLLSTRAGCLGVNLIGANRVVVFDASWNPCHDAQAVCRVYRYGQKKPCHIYRLVADYTLEKKIYDRQISKQGMSDRVVDDLNPMLNFTRKEVENLLHFVEKEPAPQTSLDIKGIKESVLQLACLKYPHLITKEPFEHESLLLNRKDHKLTKAEKKAAKKSYEEDKRTSVPYTRPSYAQYYPASDQSLTSIPAFSQRNWQPTLKGDEKPVASVRPVQSTPIPMMPRHVPLSGGVSSASSTNTSMNFPINYLQRAGVLVQKVVTTTDIVIPGLNSSTDVQARINAGESIHIIRGTKGTYIRTSDGRIFAVRATGKPKAPEDGRMAASGSQGPSLASTSNGRHSASSPKAPDPEGLARPVSPDSPEIISELQQYADVAAARESRQSSPSISAALPGPPGQLMDNSTIPGTALGTEPCLGGHCLNSSLLVTGQPSGGRHPVLDLRGHKRKLATPSVTQESIRRRSRKGHLPAPVQPYEHGYPVSGGFAMPPVSLNHNLTTPFTSQAGENSLFMGSNPSYYQLSNLLADARLVFPVTTDPLVPAGPVSSSSTATSVTASNPSFMLNPSVPGMLPSYSLPFSQPLLSEPRMFAPFPSPGLPSNLSRGVSVYPGYMSPHAGYPAGGLLRSQVPPFDSHEVAEVGFSSNDDEDKDDDVIEVTGK
modifications: [35S]methionine label

Reference: patent US20030077800A1 (HORMOS MEDICAL, published 2003)
